{"source": "patent US9968649B2", "about": "“Vasopressin formulations for use in treatment of hypotension” (Par Pharmaceutical, Inc., priority 2015, dated 2018)", "origin": "cited, not measured here", "system": "healthy subjects", "conditions": "in vivo; cited from earlier work", "data": [{"smiles": "CN1CC[C@]23c4c5ccc(O)c4O[C@H]2[C@@H](O)C=C[C@H]3[C@H]1C5", "note": "[morphine]", "values": [{"measurement": "impact on exposure to endogenous vasopressin", "value": "do not impact exposure"}]}]}
